PubChem BioAssay AID1159579 | Peter MacCallum Cancer Centre – 2015
Test: 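Find genes whose silencing alters migration of lymphatic endothelial cells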 (follow-up of hits). Cells: human dermal lymphatic endothelial cells. Knock-down reagent: single siRNA against human genes, 25 nM. Read-out: 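High content images of wound closure area and cell nuclei counts, each the average of two wells, expressed against mock transfection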. Scale: migration relative to mock: higher = more migration into the scratch; mean nuclei count: higher = more cells remaining. Call rule: 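Called active when the migration ratio is 0.6 or lower (impaired) or 1.3 or higher (accelerated), but inactive whenever the mean nuclei count falls under 3300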. Meaning of the calls: active = migration changed (impaired or accelerated); inactive = no migration change, or too few cells.
Shown is an unselected part of about 2,000 deposited reagents. 549 of them (27%) were called active. 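Some migration ratios are negative; siRNAs with too few cells are inactive whatever their migration ratio.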 A number with no mark means an inactive call. Reagents against one gene are numbered here. Not stated in the record: the time to read-out.

| gene | reagent no. | migration relative to mock | migration and cell number class | mean nuclei count |
| --- | --- | --- | --- | --- |
| CMC2 | 1 | 1 | no change in migration or cell number | 5086 |
| CMC2 | 2 | 0.84 | no change in migration or cell number | 5840 |
| CMC2 | 3 | 0.57 | too few cells; migration not scored | 3244 |
| CMC2 | 4 | 0.84 | no change in migration or cell number | 5545 |
| STRC | 1 | 0.23 (active) | migration reduced | 5274 |
| STRC | 2 | 0.58 (active) | migration reduced | 5308 |
| STRC | 3 | 1.25 | no change in migration or cell number | 5582 |
| STRC | 4 | 0.74 | no change in migration or cell number | 4488 |
| EVA1B | 1 | 1 | no change in migration or cell number | 6748 |
| EVA1B | 2 | 1.25 | no change in migration or cell number | 5850 |
| EVA1B | 3 | 0.72 | no change in migration or cell number | 6685 |
| EVA1B | 4 | 0.62 | no change in migration or cell number | 5442 |
| SH3BGRL2 | 1 | 0.95 | no change in migration or cell number | 5542 |
| SH3BGRL2 | 2 | 0.65 | no change in migration or cell number | 4708 |
| SH3BGRL2 | 3 | 1.06 | no change in migration or cell number | 6350 |
| SH3BGRL2 | 4 | 1.03 | no change in migration or cell number | 6102 |
| CAMTA2 | 1 | 0.9 | no change in migration or cell number | 4470 |
| CAMTA2 | 2 | 1.21 | no change in migration or cell number | 4244 |
| CAMTA2 | 3 | 1.06 | no change in migration or cell number | 4962 |
| CAMTA2 | 4 | 0.86 | no change in migration or cell number | 5344 |
| P2RX2 | 1 | 0.33 (active) | migration reduced | 5384 |
| P2RX2 | 2 | 0.48 (active) | migration reduced | 5014 |
| P2RX2 | 3 | 0.68 | no change in migration or cell number | 6308 |
| P2RX2 | 4 | 0.18 (active) | migration reduced | 3847 |
| CHST5 | 1 | 0.61 | no change in migration or cell number | 5120 |
| CHST5 | 2 | 0.46 (active) | migration reduced | 5460 |
| CHST5 | 3 | 0.86 | no change in migration or cell number | 6156 |
| CHST5 | 4 | 0.37 (active) | migration reduced | 5226 |
| LRPPRC | 1 | 0.87 | no change in migration or cell number | 5592 |
| LRPPRC | 2 | 0.42 (active) | migration reduced | 3691 |
| LRPPRC | 3 | 1.02 | no change in migration or cell number | 6274 |
| LRPPRC | 4 | 0.9 | no change in migration or cell number | 5206 |
| TAS1R2 | 1 | -1.06 | too few cells; migration not scored | 1398 |
| TAS1R2 | 2 | 0.84 | no change in migration or cell number | 5216 |
| TAS1R2 | 3 | 0.63 | no change in migration or cell number | 5216 |
| TAS1R2 | 4 | 0.76 | no change in migration or cell number | 5053 |
| CASK | 1 | 0.51 (active) | migration reduced | 5794 |
| CASK | 2 | 0.76 | no change in migration or cell number | 6816 |
| CASK | 3 | 1 | no change in migration or cell number | 6424 |
| CASK | 4 | 0.44 (active) | migration reduced | 5996 |
| TMEM125 | 1 | 0.66 | no change in migration or cell number | 4824 |
| TMEM125 | 2 | 0.68 | no change in migration or cell number | 4656 |
| TMEM125 | 3 | 0.43 (active) | migration reduced | 7010 |
| TMEM125 | 4 | 0.46 | too few cells; migration not scored | 3261 |
| GLTPD2 | 1 | 1.08 | no change in migration or cell number | 6160 |
| GLTPD2 | 2 | 0.64 | no change in migration or cell number | 5187 |
| GLTPD2 | 3 | 1.22 | no change in migration or cell number | 6929 |
| GLTPD2 | 4 | 0.72 | no change in migration or cell number | 7158 |
| PMEL | 1 | 0.76 | no change in migration or cell number | 6268 |
| PMEL | 2 | 0.5 (active) | migration reduced | 6642 |
| PMEL | 3 | 0.82 | no change in migration or cell number | 7029 |
| PMEL | 4 | 1 | no change in migration or cell number | 6755 |
| GPI | 1 | 0.7 | no change in migration or cell number | 6562 |
| GPI | 2 | -0.75 (active) | migration reduced | 4026 |
| GPI | 3 | 0.64 | no change in migration or cell number | 6768 |
| GPI | 4 | 0.73 | no change in migration or cell number | 6627 |
| MARK1 | 1 | 1 | no change in migration or cell number | 4962 |
| MARK1 | 2 | 0.52 (active) | migration reduced | 7204 |
| MARK1 | 3 | 0.94 | no change in migration or cell number | 6980 |
| MARK1 | 4 | 0.74 | no change in migration or cell number | 7097 |
| ZNF319 | 1 | 0.82 | no change in migration or cell number | 5346 |
| ZNF319 | 2 | 0.7 | no change in migration or cell number | 5234 |
| ZNF319 | 3 | 0.89 | no change in migration or cell number | 6612 |
| ZNF319 | 4 | 0.68 | no change in migration or cell number | 5967 |
| RRP1 | 1 | 0.88 | no change in migration or cell number | 6034 |
| RRP1 | 2 | 0.72 | no change in migration or cell number | 5022 |
| RRP1 | 3 | 0.7 | no change in migration or cell number | 5965 |
| RRP1 | 4 | 0.76 | no change in migration or cell number | 5642 |

7 entries from above, reduced to “migration and cell number class”:
GLTPD2 #2 = no change in migration or cell number
GLTPD2 #3 = no change in migration or cell number
GLTPD2 #4 = no change in migration or cell number
PMEL #1 = no change in migration or cell number
PMEL #2 = migration reduced (active)
PMEL #3 = no change in migration or cell number
PMEL #4 = no change in migration or cell number
